{
  "sequences": {"note": "Amino acid sequences for entries named in this document (tags omitted).", "UniProt P06709": "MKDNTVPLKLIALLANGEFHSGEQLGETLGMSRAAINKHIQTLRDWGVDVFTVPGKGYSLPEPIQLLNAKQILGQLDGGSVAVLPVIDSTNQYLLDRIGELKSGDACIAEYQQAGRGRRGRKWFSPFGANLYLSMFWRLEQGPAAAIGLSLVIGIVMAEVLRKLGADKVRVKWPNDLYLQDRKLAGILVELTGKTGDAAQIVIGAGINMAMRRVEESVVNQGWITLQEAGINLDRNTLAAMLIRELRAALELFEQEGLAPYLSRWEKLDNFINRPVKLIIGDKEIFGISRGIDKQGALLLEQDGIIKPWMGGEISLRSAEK"},
  "source": "paper PMC6391492",
  "about": "“Native mass spectrometry identifies an alternative DNA-binding pathway for BirA from Staphylococcus aureus”",
  "biological_target": "E. coli BirA (biotin retention protein A, biotin protein ligase), wild type (E. coli) (UniProt P06709)",
  "experiment": "condition: only apo (without biotin and MgATP); 10 µM; native MS; apo proteins (no biotinyl-5′-AMP), no DNA, 10 µM protein in 200 mM ammonium acetate pH 6.85, nano-electrospray; dimer to monomers; both purified",
  "note": "These are yes or no findings as the source states them, for the method shown.",
  "data": [
    {"substance": "E. coli BirA (biotin retention protein A, biotin protein ligase), wild type (from UniProt P06709 1-321) (enzyme)", "values": [
      {"measurement": "binding", "value": "no binding"}
    ]}
  ]
}
